Measurements from paper PMC3022033.
No constants are given. Whether binding was seen depends on the method and setting. In cells and extracts the contact can be indirect. Tags and fused reporters may be left off the sequences shown.

Sequences of proteins named here, by UniProt entry; tags and fusion partners are left off.
UniProt Q07812: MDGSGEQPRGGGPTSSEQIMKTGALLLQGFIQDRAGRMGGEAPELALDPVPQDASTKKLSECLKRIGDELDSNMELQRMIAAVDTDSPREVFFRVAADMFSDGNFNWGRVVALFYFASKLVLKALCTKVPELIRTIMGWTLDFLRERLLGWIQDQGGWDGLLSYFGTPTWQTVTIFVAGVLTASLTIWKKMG

T1: Mieap-full (UniProt Q8TC71)
T1 sequence: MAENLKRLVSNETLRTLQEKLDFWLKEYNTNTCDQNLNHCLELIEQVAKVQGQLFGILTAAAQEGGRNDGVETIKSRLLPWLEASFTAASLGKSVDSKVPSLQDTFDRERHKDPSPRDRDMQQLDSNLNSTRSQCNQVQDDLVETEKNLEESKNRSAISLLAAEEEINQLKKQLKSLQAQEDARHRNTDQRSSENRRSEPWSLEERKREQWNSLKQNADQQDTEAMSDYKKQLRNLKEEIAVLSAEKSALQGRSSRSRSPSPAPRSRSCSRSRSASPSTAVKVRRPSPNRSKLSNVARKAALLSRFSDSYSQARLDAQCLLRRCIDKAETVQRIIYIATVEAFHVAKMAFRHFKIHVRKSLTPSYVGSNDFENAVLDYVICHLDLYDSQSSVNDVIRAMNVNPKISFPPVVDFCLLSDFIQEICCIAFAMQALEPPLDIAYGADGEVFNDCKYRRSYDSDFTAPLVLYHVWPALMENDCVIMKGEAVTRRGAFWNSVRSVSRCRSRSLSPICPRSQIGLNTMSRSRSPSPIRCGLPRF


Biological target: T1, Mieap-full
Assay: co-IP; HCT116 cells transfected with N-FLAG-tagged plasmids and infected with Ad-Mieap vectors (MOI 5), lysed 36 h later in 1% NP40, 150 mM NaCl, 25 mM Tris-HCl pH 7.6; IP with rabbit anti-Mieap or mouse anti-FLAG antibody overnight at 4°C, blot with anti-FLAG or anti-Mieap; in Figure 4A with or without Ebselen

Row | binding | Molecule
1 | no binding | N-FLAG-tagged Bax (from UniProt Q07812 1-192)
2 | no binding | N-FLAG-tagged Bak (protein, UniProt Q16611 1-211) MASGQGPGPPRQECGEPALPSASEEQVAQDTEEVFRSYVFYRHQQEQEAEGVAAPADPEMVTLPLQPSSTMGQVGRQLAIIGDDINRRYDSEFQTMLQHLQPTAENAYEYFTKIATSLFESGINWGRVVALLGFGYRLALHVYQHGLTGFLGQVTRFVVDFMLHHCIARWIAQRGGWVAALNLGNGPILNVLVVLGVVLLGQFVVRRFFKS
